At least one compound was matched to its structure with a doubt left.
Tested on: anandamide transporter
Assay: [3H]anandamide accumulation in cortical astrocytes in culture
Type: cell-based, rat

## CCCCC/C=C\C/C=C\C/C=C\C/C=C\CCCC(=O)O [arachidonate]
  prevention of the temperature-sensitive component of [3H]anandamide accumulation: not

From US7589220B2, “Inhibitors of the anandamide transporter” (priority 1998, dated 2009)
